Data: patent EP3984547A1 (Universitat Pompeu Fabra, dated 2022)
Some peptides are written in HELM: one residue between dots, names in brackets for other building blocks, links after the first $.

Test: general procedure: Fmoc solid-phase peptide synthesis; H-Rink Amide-ChemMatrix resin, 0.50 mmol/g; N,N,N',N'-tetramethyluronium hexafluorophosphate (5 eq) / DIEA (10 eq)
Details: whole synthesis, 220 nm, scale of the general procedure 0.05 mmol

Substance	purity (crude or final not stated)
PEPTIDE1{D.N.G.G.G.N.T.D.I.Y.S.E.[am]}$$$$V2.0	88%
PEPTIDE1{S.W.Y.D.H.M.A.G.D.S.S.Y.[am]}$$$$V2.0	95%
PEPTIDE1{S.Y.T.D.V.Q.D.S.[am]}$$$$V2.0	93%
PEPTIDE1{T.T.D.G.S.T.G.D.D.L.Q.A.[am]}$$$$V2.0	96%
